Measured values published in article doi:10.1101/2023.08.09.552644.
These are yes or no findings as the source states them, for the method shown. In cells and extracts the contact can be indirect. Some binding calls cover weakened binding; strength is not graded here. For some of these results: Sequences can lack the tags named with a protein.

Sequences of proteins named here, by UniProt entry; tags and fusion partners are left off.
UniProt Q9R1E0: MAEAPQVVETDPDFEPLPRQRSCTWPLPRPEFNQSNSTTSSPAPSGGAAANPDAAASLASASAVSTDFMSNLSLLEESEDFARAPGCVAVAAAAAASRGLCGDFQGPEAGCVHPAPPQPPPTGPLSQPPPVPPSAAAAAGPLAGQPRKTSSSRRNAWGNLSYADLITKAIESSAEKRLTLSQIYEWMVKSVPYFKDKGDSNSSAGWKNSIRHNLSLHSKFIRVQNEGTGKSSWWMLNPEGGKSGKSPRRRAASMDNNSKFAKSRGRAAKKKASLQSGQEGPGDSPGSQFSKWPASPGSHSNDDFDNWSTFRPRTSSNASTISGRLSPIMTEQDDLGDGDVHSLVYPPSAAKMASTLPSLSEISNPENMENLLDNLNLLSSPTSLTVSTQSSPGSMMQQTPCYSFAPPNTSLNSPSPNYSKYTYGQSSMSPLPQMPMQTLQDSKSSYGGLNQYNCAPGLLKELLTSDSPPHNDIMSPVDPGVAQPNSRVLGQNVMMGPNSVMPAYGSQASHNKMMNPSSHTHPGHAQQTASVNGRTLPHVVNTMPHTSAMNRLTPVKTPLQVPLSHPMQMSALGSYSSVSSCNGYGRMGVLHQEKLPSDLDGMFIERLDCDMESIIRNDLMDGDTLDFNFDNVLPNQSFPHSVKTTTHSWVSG
UniProt Q9WVH4: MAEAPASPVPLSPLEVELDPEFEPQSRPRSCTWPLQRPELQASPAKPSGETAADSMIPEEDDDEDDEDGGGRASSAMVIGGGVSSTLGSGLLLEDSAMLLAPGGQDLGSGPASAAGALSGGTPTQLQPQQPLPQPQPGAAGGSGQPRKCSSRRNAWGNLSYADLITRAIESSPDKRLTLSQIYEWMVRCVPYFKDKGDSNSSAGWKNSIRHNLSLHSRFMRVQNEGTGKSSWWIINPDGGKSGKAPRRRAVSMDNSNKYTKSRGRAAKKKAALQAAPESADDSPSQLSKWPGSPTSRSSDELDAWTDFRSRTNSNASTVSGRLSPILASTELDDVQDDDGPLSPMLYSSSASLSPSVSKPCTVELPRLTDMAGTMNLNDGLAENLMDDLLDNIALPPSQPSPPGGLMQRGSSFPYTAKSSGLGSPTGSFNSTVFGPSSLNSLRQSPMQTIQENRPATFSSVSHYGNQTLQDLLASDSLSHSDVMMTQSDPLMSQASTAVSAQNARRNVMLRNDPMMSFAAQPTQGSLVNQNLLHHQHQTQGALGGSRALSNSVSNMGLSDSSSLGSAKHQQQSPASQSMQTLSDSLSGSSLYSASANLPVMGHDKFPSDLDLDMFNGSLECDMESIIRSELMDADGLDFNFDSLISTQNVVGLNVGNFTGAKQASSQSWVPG
UniProt Q9WVH3: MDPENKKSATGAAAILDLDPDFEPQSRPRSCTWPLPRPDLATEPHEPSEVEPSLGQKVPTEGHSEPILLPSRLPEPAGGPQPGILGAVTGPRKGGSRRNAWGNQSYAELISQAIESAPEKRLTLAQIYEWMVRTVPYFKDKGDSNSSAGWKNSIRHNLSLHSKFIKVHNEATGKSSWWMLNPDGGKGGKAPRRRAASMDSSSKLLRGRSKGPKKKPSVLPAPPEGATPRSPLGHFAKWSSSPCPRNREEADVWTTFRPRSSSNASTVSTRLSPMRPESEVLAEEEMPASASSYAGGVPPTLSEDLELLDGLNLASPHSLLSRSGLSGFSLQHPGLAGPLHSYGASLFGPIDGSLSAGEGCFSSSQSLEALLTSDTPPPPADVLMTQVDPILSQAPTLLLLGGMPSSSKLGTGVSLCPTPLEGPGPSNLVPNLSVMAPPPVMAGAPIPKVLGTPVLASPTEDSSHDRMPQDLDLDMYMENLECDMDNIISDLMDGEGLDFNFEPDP
UniProt P06537: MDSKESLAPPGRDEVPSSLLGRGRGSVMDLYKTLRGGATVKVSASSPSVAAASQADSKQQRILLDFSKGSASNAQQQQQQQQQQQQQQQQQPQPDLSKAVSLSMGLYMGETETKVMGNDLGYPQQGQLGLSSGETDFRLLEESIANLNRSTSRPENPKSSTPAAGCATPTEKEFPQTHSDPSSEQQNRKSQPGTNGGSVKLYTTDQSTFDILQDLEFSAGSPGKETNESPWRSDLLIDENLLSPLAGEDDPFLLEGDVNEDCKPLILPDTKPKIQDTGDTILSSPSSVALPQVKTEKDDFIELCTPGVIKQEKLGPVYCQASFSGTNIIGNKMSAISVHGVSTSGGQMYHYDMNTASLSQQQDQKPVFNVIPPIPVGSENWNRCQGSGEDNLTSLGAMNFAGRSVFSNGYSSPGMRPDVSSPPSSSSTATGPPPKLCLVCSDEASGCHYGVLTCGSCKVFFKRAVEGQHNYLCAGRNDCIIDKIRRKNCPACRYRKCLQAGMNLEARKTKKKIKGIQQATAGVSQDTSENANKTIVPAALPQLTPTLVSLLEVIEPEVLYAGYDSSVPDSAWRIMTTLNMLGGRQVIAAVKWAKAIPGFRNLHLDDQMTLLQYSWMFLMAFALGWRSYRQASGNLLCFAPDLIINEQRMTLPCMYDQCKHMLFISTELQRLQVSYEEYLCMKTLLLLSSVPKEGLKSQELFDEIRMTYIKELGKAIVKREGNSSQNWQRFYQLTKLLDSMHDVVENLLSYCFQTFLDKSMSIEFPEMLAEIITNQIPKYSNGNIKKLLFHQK

B1: Mkl2 (FLAG- or HA-tagged, co-immunoprecipitation construct) (protein, UniProt P59759 1-1080)
chain: MIDSSKKQPQGFPEILTAEDFEPFKEKECLEGSNQKSLKEVLQLRLQQRRTREQLVDQGIMPPLKSPAAFHEQIKSLERARTENFLKHKIRSRPDRSELVRMHILEETFAEPSLQATQMKLKRARLADDLNEKIAQRPGPMELVEKNILPVDSSVKEAIIGVVKEDYPHTHGEFSFDEDSSDALSPDQPASQESQGSAASPSEPKVSASPPPVTASTPAQFTSVSPAVPEFLKTPLTADQPPTRSTAPVLPTNTVSSAKSGPMLVKQSHPKNPNDKHRSKKCKDPKPRVKKLKYHQYIPPNQKGEKSEPQMDSNYARLLQQQQLFLQLQILSQQQQQQQQQHYNYQTILPAPIKTDKNSSSGSNSGSSSSMPARRPGPLPSSLDDLKVSELKTELKLRGLPVSGTKPDLIERLKPYQEVTSSNLATGSIVAVSSATIVTSNPEVTVALPVTTLHNAVTSSVSTFKADLALPATSSVPHVENAHSPLPISPSPSEQSSLSTDDTNMTDTFTEIMTMMSPSQLLCSSPLRVVSHDDSLSPSSSTLSTLELDAAEKDRKLQEKEKQIEELKRKLEQEQKLVEVLKMQLEVEKRGQQRPPDPQPSDPPHPFNTSDPKHGSVGSSIKDEASLPDCSSPQQPITVPGHSVGQPISTGSQTLVAKKTVVVKQEVPMAQAEQQNVVSQFYLSSQGQPPALVAQPQALLTTQTTQLLLPVSIQGSNVTSVQLPVGSLQLQTPAQGRVQAQPHVAAATQVPAAALPSALTSALPQKQEAFPQHVLGQPQPVRKVFTNSAPNTVLQYQRQPGPTNQQPFVSKTSNPALQSRTAPLAPLQNGPSLASKPSSPPPPQQFVVQHSLFATPITKTKDPPRYEEAIKQTRSTQPALPEVSSVHSQQMDDLFDILIKSGEISFPIKEEPSPISKMKPVTASITTMPVNTVVSRPPPQVQIAPPVSLEPVNSLSASLENQLEAFLDGTLPSATDTGPLQNSSEDRESFSLIEDLQNDLLSHSSMLYQSHSPMETSEAQLVSGTPCLSLDLSDSNLDNMEWLDITMPTTSSGLTPLSTTAPSMFSADFLDPQDLPLPWD
B2: Mkl1 (NanoBiT construct) (protein, UniProt Q8K4J6 1-964)
chain: MTLLEPEMLMMAVQSVLQLKLQQRRTREELVSQGIMPPLKSPAAFHEQRRSLERARTEDYLKRKIRSRPERAELVRMHILEETSAEPSLQAKQLKLKRARLADDLNEKIAQRPGPMELVEKNILPVESSLKEAIIVGQVNYPKVADSSSFDEDSSDALSPEQPASHESQGSVPSPLESRVSDPLPSATSISPTQVLSQLPMAPDPGETLFLAEQPPLPPAPLLPPSLANGSIVPTAKPAPTLIKQSQPKSASEKSQRSKKAKELKPKVKKLKYHQYIPPDQKQDKGAPAMDSSYAKILQQQQLFLQLQILNQQQQQQQQQHYNYQAILPAPPKPSAETPGSSAPTPSRSLSTSSSPSSGTPGPSGLARQSSTALAAKPGALPANLDDMKVAELKQELKLRSLPVSGTKTELIERLRAYQDQVSPAPGAPKAPATTSVLSKAGEVVVAFPAALLSTGSALVTAGLAPAEMVVATVTSNGMVKFGSTGSTPPVSPTPSERSLLSTGDENSTPGDAFGEMVTSPLTQLTLQASPLQIVKEEGARAASCCLSPGARAELEGLDKDQMLQEKDKQIEELTRMLQQKQQLVELLRLQLEQQKRAQQPAPASSPVKRESGFSSCQLSCQPQGSAHAFGSGLVVPTTNHGDTQAPAPESPPVVVKQEAGPPEPDLAPSSQLLLGSQGTSFLKRVSPPTLVTDSTGTHLILTVTNKSADGPGLPAGSPQQPLSQPGSPAPGPPAQMDLEHPPQPPFATPTSLLKKEPPGYEETVTQQPKQQENGSSSQHMDDLFDILIQSGEISADFKEPPSLPGKEKSPPAAAAYGPPLTPQPSPLSELPQAAPPPGSPTLPGRLEDFLESSTGLPLLTSGHEGPEPLSLIDDLHSQMLSSSAILDHPPSPMDTSELHFAPEPSSGMGLDLAVGHLDSMDWLELSSGGPVLSLAPLSTAAPSLFSMDFLDGHDLQLHWDSCL
B3: Mkl2 (NanoBiT construct) (protein, UniProt P59759 1-1080)
chain: MIDSSKKQPQGFPEILTAEDFEPFKEKECLEGSNQKSLKEVLQLRLQQRRTREQLVDQGIMPPLKSPAAFHEQIKSLERARTENFLKHKIRSRPDRSELVRMHILEETFAEPSLQATQMKLKRARLADDLNEKIAQRPGPMELVEKNILPVDSSVKEAIIGVVKEDYPHTHGEFSFDEDSSDALSPDQPASQESQGSAASPSEPKVSASPPPVTASTPAQFTSVSPAVPEFLKTPLTADQPPTRSTAPVLPTNTVSSAKSGPMLVKQSHPKNPNDKHRSKKCKDPKPRVKKLKYHQYIPPNQKGEKSEPQMDSNYARLLQQQQLFLQLQILSQQQQQQQQQHYNYQTILPAPIKTDKNSSSGSNSGSSSSMPARRPGPLPSSLDDLKVSELKTELKLRGLPVSGTKPDLIERLKPYQEVTSSNLATGSIVAVSSATIVTSNPEVTVALPVTTLHNAVTSSVSTFKADLALPATSSVPHVENAHSPLPISPSPSEQSSLSTDDTNMTDTFTEIMTMMSPSQLLCSSPLRVVSHDDSLSPSSSTLSTLELDAAEKDRKLQEKEKQIEELKRKLEQEQKLVEVLKMQLEVEKRGQQRPPDPQPSDPPHPFNTSDPKHGSVGSSIKDEASLPDCSSPQQPITVPGHSVGQPISTGSQTLVAKKTVVVKQEVPMAQAEQQNVVSQFYLSSQGQPPALVAQPQALLTTQTTQLLLPVSIQGSNVTSVQLPVGSLQLQTPAQGRVQAQPHVAAATQVPAAALPSALTSALPQKQEAFPQHVLGQPQPVRKVFTNSAPNTVLQYQRQPGPTNQQPFVSKTSNPALQSRTAPLAPLQNGPSLASKPSSPPPPQQFVVQHSLFATPITKTKDPPRYEEAIKQTRSTQPALPEVSSVHSQQMDDLFDILIKSGEISFPIKEEPSPISKMKPVTASITTMPVNTVVSRPPPQVQIAPPVSLEPVNSLSASLENQLEAFLDGTLPSATDTGPLQNSSEDRESFSLIEDLQNDLLSHSSMLYQSHSPMETSEAQLVSGTPCLSLDLSDSNLDNMEWLDITMPTTSSGLTPLSTTAPSMFSADFLDPQDLPLPWD
B4: Mkl1 (FLAG- or HA-tagged, co-immunoprecipitation construct) (protein, UniProt Q8K4J6 1-964)
chain: MTLLEPEMLMMAVQSVLQLKLQQRRTREELVSQGIMPPLKSPAAFHEQRRSLERARTEDYLKRKIRSRPERAELVRMHILEETSAEPSLQAKQLKLKRARLADDLNEKIAQRPGPMELVEKNILPVESSLKEAIIVGQVNYPKVADSSSFDEDSSDALSPEQPASHESQGSVPSPLESRVSDPLPSATSISPTQVLSQLPMAPDPGETLFLAEQPPLPPAPLLPPSLANGSIVPTAKPAPTLIKQSQPKSASEKSQRSKKAKELKPKVKKLKYHQYIPPDQKQDKGAPAMDSSYAKILQQQQLFLQLQILNQQQQQQQQQHYNYQAILPAPPKPSAETPGSSAPTPSRSLSTSSSPSSGTPGPSGLARQSSTALAAKPGALPANLDDMKVAELKQELKLRSLPVSGTKTELIERLRAYQDQVSPAPGAPKAPATTSVLSKAGEVVVAFPAALLSTGSALVTAGLAPAEMVVATVTSNGMVKFGSTGSTPPVSPTPSERSLLSTGDENSTPGDAFGEMVTSPLTQLTLQASPLQIVKEEGARAASCCLSPGARAELEGLDKDQMLQEKDKQIEELTRMLQQKQQLVELLRLQLEQQKRAQQPAPASSPVKRESGFSSCQLSCQPQGSAHAFGSGLVVPTTNHGDTQAPAPESPPVVVKQEAGPPEPDLAPSSQLLLGSQGTSFLKRVSPPTLVTDSTGTHLILTVTNKSADGPGLPAGSPQQPLSQPGSPAPGPPAQMDLEHPPQPPFATPTSLLKKEPPGYEETVTQQPKQQENGSSSQHMDDLFDILIQSGEISADFKEPPSLPGKEKSPPAAAAYGPPLTPQPSPLSELPQAAPPPGSPTLPGRLEDFLESSTGLPLLTSGHEGPEPLSLIDDLHSQMLSSSAILDHPPSPMDTSELHFAPEPSSGMGLDLAVGHLDSMDWLELSSGGPVLSLAPLSTAAPSLFSMDFLDGHDLQLHWDSCL

How the values were obtained:
[1] = biological target: Foxo1 (FLAG- or HA-tagged, co-immunoprecipitation construct) (mouse) (UniProt Q9R1E0); assay: co-IP
[2] = biological target: Foxo1 (NanoBiT construct) (mouse) (UniProt Q9R1E0); assay: split reporter
[3] = biological target: Foxo3 (NanoBiT construct) (mouse) (UniProt Q9WVH4); assay: split reporter
[4] = biological target: Foxo4 (NanoBiT construct) (mouse) (UniProt Q9WVH3); assay: split reporter
[5] = biological target: glucocorticoid receptor (Nr3c1), LgBiT-tagged (NanoBiT construct) (mouse) (UniProt P06537); assay: split reporter

Row | Binder | binding [1] | binding [2] | binding [3] | binding [4] | binding [5]
1 | B1 | binds | – | – | – | –
2 | B2 | – | binds | binds | binds | binds
3 | B3 | – | binds | binds | binds | binds
4 | B4 | binds | – | – | – | –
